# From the supplement of paper PMC10849652
# Chains of the proteins cited; added tags and fusions are not shown. Lines headed by an entry give the natural chain unless they say otherwise; changes in a name come on top.
# UniProt Q6P9F7: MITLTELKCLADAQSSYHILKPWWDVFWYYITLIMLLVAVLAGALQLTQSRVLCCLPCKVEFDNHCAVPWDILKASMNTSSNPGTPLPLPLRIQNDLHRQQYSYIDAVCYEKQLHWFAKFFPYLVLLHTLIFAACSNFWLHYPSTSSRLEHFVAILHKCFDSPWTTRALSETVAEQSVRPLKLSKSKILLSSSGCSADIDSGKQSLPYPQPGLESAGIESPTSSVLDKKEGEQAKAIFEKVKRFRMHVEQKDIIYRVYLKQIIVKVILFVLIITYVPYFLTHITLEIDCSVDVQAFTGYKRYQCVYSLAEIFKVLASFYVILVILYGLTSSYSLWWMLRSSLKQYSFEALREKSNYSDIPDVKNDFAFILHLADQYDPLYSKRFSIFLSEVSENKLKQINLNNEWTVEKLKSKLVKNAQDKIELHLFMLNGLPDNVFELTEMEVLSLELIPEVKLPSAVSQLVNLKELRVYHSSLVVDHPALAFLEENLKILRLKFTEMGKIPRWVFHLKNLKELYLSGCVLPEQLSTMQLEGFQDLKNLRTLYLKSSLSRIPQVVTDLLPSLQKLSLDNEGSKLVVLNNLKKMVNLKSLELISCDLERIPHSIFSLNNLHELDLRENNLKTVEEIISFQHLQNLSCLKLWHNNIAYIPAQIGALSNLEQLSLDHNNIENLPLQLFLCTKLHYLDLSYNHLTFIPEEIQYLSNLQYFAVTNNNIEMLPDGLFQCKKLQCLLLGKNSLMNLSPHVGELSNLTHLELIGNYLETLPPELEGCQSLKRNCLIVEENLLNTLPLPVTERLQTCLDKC
# UniProt Q969L4: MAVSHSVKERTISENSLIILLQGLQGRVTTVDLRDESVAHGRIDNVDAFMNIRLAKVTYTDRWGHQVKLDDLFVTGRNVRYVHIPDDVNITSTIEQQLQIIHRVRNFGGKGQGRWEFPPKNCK
# UniProt Q8IVH8: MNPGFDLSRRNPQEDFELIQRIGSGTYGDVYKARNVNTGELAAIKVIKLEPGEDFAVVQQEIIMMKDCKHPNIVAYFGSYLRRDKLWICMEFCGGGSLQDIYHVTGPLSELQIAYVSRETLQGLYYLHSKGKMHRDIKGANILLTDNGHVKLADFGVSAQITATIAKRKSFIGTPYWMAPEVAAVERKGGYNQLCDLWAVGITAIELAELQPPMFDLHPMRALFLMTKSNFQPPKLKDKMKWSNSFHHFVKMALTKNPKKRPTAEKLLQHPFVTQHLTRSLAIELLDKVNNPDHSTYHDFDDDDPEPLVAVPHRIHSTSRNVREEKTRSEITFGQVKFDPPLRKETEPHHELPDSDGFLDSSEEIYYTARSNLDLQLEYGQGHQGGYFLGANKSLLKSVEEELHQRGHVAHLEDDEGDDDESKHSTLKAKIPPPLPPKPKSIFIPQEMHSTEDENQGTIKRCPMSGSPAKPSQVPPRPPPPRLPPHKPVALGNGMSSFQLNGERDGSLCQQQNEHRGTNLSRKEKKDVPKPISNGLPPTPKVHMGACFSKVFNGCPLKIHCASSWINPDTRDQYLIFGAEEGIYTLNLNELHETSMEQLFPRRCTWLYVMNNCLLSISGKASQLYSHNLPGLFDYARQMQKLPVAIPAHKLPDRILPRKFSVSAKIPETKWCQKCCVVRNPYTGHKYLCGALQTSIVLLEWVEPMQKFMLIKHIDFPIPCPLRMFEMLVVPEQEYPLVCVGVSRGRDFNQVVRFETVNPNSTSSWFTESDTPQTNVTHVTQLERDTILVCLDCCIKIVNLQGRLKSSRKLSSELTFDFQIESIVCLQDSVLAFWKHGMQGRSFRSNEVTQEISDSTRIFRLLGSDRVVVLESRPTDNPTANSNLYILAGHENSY
# UniProt Q8IWC1: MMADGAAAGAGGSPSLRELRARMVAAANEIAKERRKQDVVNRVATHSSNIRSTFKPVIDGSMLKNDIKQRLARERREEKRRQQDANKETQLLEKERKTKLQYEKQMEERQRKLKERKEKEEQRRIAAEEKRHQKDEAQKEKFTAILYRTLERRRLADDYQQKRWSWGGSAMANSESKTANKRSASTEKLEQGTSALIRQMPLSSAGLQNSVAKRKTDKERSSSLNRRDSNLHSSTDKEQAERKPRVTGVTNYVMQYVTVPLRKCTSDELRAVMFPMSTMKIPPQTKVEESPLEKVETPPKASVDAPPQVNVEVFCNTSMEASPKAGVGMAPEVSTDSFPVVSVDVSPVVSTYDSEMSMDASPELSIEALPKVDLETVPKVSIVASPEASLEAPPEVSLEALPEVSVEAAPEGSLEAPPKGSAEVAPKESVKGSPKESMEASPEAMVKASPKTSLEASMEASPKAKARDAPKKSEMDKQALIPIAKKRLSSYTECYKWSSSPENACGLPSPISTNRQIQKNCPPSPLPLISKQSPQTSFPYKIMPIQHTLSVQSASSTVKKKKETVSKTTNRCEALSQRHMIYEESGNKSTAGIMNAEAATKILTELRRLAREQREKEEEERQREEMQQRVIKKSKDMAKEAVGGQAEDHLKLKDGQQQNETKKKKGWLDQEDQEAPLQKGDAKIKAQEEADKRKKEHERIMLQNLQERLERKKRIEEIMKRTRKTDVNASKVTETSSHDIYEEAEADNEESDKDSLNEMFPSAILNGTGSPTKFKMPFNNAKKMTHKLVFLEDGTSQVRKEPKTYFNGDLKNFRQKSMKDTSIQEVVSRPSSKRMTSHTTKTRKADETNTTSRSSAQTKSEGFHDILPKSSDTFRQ
# UniProt P43355: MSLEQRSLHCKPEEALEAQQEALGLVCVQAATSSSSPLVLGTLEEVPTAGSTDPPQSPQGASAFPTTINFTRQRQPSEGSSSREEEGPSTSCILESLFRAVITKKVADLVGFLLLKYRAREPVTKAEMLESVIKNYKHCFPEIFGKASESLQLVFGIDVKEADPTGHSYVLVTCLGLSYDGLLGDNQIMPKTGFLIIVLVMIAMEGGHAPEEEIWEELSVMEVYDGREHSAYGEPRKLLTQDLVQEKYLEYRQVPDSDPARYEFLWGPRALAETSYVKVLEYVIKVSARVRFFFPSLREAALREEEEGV
# UniProt Q6NSJ5: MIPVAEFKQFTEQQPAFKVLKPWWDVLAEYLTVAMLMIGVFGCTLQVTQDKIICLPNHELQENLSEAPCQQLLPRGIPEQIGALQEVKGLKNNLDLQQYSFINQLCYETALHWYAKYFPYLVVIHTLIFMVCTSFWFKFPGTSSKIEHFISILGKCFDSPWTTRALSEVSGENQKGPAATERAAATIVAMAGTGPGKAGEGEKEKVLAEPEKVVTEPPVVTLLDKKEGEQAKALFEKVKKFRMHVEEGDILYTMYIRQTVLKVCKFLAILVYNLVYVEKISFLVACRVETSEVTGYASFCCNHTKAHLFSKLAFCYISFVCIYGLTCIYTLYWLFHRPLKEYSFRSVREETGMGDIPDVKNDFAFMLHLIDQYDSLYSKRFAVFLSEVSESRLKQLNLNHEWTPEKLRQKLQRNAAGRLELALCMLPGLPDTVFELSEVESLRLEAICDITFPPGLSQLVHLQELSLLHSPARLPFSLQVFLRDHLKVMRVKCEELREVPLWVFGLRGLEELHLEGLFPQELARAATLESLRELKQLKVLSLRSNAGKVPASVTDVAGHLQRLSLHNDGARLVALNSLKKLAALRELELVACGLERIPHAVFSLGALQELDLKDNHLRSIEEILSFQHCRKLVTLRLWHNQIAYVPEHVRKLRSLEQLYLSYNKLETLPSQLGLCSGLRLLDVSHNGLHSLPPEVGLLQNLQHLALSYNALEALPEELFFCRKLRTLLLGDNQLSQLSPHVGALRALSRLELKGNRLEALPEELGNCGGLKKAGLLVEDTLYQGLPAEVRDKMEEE
# UniProt Q92585: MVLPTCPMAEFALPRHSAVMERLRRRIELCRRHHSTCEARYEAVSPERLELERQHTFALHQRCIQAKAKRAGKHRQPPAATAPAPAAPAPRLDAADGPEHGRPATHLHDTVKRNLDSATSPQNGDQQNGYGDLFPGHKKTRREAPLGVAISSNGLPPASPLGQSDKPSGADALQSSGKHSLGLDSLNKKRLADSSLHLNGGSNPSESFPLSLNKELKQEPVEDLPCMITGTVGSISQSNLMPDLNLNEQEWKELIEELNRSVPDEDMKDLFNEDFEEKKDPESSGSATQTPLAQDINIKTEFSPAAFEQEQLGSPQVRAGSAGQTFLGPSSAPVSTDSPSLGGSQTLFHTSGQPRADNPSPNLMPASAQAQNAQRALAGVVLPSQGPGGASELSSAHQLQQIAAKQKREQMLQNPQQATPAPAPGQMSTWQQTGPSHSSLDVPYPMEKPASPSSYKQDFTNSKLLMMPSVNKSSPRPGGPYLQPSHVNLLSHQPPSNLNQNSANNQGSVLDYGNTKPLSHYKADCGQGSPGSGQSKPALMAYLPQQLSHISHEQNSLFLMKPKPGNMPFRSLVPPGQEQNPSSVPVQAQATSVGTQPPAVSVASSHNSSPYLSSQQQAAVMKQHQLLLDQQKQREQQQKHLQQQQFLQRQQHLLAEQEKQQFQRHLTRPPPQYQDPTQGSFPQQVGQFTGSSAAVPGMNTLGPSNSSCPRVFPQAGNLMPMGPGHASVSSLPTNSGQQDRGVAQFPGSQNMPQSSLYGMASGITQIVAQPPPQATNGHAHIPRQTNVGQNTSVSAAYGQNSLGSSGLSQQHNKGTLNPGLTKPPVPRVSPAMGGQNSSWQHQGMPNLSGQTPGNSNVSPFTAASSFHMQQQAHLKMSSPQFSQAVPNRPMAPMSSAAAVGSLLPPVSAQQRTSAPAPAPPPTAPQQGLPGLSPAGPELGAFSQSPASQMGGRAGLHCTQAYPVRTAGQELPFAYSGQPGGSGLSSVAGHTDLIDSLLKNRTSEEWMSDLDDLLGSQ
# UniProt O43325: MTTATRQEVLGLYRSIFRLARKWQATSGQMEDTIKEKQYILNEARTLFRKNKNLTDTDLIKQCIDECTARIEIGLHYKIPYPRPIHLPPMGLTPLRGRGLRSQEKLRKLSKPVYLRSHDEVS
# UniProt Q9Y4Y9: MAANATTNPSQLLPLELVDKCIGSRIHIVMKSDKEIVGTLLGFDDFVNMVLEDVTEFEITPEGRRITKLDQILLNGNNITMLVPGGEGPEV
# UniProt Q9ULX9: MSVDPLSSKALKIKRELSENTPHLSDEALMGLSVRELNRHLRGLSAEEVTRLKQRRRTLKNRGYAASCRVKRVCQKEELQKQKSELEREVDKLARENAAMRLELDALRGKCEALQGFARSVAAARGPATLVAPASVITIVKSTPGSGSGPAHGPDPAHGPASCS
# UniProt Q02779: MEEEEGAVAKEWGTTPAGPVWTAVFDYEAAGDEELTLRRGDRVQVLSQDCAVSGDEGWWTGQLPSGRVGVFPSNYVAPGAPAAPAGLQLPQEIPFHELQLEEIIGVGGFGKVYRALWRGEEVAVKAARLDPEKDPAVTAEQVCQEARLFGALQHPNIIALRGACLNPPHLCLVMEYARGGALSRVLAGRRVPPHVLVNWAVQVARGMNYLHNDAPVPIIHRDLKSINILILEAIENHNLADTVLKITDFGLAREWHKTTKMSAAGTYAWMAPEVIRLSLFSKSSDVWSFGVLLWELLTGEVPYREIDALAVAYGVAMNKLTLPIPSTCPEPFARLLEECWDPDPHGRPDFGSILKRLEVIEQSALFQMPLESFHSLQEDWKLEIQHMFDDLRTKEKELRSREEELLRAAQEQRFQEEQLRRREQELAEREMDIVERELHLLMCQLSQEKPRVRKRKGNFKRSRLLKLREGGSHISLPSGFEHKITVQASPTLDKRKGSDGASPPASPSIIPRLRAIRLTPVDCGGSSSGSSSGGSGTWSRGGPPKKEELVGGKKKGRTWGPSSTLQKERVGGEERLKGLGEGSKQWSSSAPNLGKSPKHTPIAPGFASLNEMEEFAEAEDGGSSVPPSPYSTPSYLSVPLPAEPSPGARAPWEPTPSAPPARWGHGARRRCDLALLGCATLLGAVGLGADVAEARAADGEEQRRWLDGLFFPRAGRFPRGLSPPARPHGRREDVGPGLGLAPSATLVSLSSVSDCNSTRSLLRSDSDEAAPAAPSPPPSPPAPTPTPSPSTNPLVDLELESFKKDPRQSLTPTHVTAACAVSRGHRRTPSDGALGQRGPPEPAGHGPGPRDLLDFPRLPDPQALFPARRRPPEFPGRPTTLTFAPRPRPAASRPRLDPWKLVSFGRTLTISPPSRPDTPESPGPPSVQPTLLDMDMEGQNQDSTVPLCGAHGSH
# UniProt Q9UPY8, whole entry, looked up: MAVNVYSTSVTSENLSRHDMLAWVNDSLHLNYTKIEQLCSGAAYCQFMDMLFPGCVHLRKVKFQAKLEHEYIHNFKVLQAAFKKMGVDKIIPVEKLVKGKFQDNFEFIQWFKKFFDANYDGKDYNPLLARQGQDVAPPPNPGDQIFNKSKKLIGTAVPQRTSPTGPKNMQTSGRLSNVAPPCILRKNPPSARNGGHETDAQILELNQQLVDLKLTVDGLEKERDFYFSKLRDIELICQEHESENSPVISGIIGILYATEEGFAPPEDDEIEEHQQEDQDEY
# UniProt O15525: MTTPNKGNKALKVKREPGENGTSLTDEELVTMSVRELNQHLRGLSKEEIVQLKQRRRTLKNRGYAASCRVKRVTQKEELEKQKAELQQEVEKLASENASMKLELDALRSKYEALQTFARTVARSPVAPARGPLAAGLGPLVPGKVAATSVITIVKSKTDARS
# The other results are listed elsewhere or left out.
# Compound: C#Cc1cccc(Nc2ncnc3cc(OCCOC)c(OCCOC)cc23)c1 [erlotinib]
# Assay: log2 fold change, soluble protein after heating vs DMSO (PISA); higher = thermal stabilisation; K562 cells, 10 uM, 30 min; active = over 0.2 and 3.5 SD of the protein, either way, in both replicates (recomputed)
# Procedure, shortened: (§1)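 Aliquots of K562 cells (2×10^6 cells/mL) treated with 10 μM compound for 30 min were heated for 3 min over 48°C-58°C. After pooling and extraction in PBS with 0.5% NP-40 at 4°C, soluble protein from a 21,000xg, 90 min spin was quantified by TMTpro 16plex LC-MS/MS with channel sums equalised. Thermal stability is expressed against control samples, from duplicates, as a log2 fold change.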
row,Target,log2 fold change
1,LRRC8B (UniProt Q6P9F7),inactive: -0.187
2,LSM10 (UniProt Q969L4),inactive: -0.039
3,MAP4K3 (UniProt Q8IVH8),inactive: -0.032
4,MAP7D3 (UniProt Q8IWC1),inactive: 0.008
5,MAP3K3 isoform 2 (UniProt Q99759),inactive: -0.005
6,MAGEA1 (UniProt P43355),inactive: 0.055
7,MAPK11 (UniProt Q15759),inactive: 0.169
8,MAML2 (UniProt Q8IZL2),inactive: -0.157
9,LRRC8E (UniProt Q6NSJ5),inactive: -0.064
10,MAML1 (UniProt Q92585),inactive: 0.369
11,LYRM1 (UniProt O43325),inactive: 0.026
12,LSM5 (UniProt Q9Y4Y9),inactive: -0.013

# Compound: C/C(=N\NC(=O)C1=CC(=CC=C1)S(=O)(=O)N2CCOCC2)/C3=C(C=CC(=C3)Cl)O
# Assay: as above
# Procedure, shortened: as §1
row,Target,log2 fold change
1,MANSC1 (UniProt Q9H8J5),inactive: -0.005
2,MAPK7 (UniProt Q13164),inactive: 0.095
3,MAFF (UniProt Q9ULX9),inactive: -0.051
4,MAGI3 isoform 1 (UniProt Q5TCQ9),inactive: -0.352
5,MAP3K10 (UniProt Q02779),inactive: 0.12
6,"LSM14A, A0A140TA76",inactive: 0.16
7,MAN2B1 (UniProt M0QYZ1),inactive: -0.257
8,MAGEB10 (UniProt Q96LZ2),inactive: -0.21
9,LRRCC1 (UniProt Q9C099),active: -0.671
10,MAP2K5 (UniProt Q13163),inactive: 0.021
11,MAPRE3 isoform 2 (UniProt Q9UPY8),inactive: -0.003
12,MAFG (UniProt O15525),inactive: -0.128

# Compound: C1=CC(=C(C=C1Cl)C2=NC3=NC=CN=C3C(=N2)NC4=CC=NC=C4)F
# Assay: as above
# Procedure, shortened: as §1
row,Target,log2 fold change
1,MARCHF3 (UniProt Q86UD3),inactive: -0.188
2,LYST (UniProt Q99698),inactive: -0.26
3,LRRC8B (UniProt Q6P9F7),inactive: -0.025
4,MAPK7 (UniProt Q13164),inactive: 0.02
5,MAP7D3 (UniProt Q8IWC1),inactive: -0.513
6,MAGI3 isoform 1 (UniProt Q5TCQ9),inactive: -0.19
7,MAP3K3 isoform 2 (UniProt Q99759),inactive: 0
8,MAGEA1 (UniProt P43355),inactive: -0.097
9,MAN2B1 (UniProt M0QYZ1),inactive: -0.296
10,LRRC8E (UniProt Q6NSJ5),inactive: -0.052
11,MAPKAP1 (UniProt Q9BPZ7),inactive: -0.018
12,LSR (UniProt M0QZL9),inactive: 0.029
13,MAML1 (UniProt Q92585),inactive: 0.004
14,LYRM1 (UniProt O43325),inactive: 0.01
15,LSM5 (UniProt Q9Y4Y9),inactive: 0.066
16,MAFG (UniProt O15525),inactive: 0.022

# Compound: C1=CC(=CC=C1C2=NC3=C(N2)C=C(C=C3)C(=O)N)OC4=CC=C(C=C4)Cl
# Assay: as above
# Procedure, shortened: as §1
row,Target,log2 fold change
1,LRRC8B (UniProt Q6P9F7),inactive: 0.001
2,LSM10 (UniProt Q969L4),inactive: 0.323
3,MAP4K3 (UniProt Q8IVH8),inactive: 0.04
4,MAP7D3 (UniProt Q8IWC1),inactive: 0.067
5,MAP3K3 isoform 2 (UniProt Q99759),inactive: 0.093
6,MAGEA1 (UniProt P43355),inactive: 0.006
7,MAPK11 (UniProt Q15759),inactive: -0.28
8,MAML2 (UniProt Q8IZL2),inactive: -0.201
9,LRRC8E (UniProt Q6NSJ5),inactive: -0.049
10,MAML1 (UniProt Q92585),inactive: 0.082
11,LYRM1 (UniProt O43325),inactive: 0.053
12,LSM5 (UniProt Q9Y4Y9),inactive: -0.001

# Compound: C1=CC2=C(C=CC(=C2)/C=C\3/C(=O)NC(=NCC4=CC=CS4)S3)N=C1
# Assay: as above
# Procedure, shortened: as §1
row,Target,log2 fold change
1,MANSC1 (UniProt Q9H8J5),inactive: -0.057
2,MAPK7 (UniProt Q13164),inactive: 0
3,MAFF (UniProt Q9ULX9),inactive: 0.042
4,MAGI3 isoform 1 (UniProt Q5TCQ9),inactive: -0.025
5,MAP3K10 (UniProt Q02779),inactive: -0.082
6,"LSM14A, A0A140TA76",inactive: -0.123
7,MAN2B1 (UniProt M0QYZ1),inactive: 0.186
8,MAGEB10 (UniProt Q96LZ2),inactive: -0.078
9,LRRCC1 (UniProt Q9C099),inactive: 0.088
10,MAP2K5 (UniProt Q13163),inactive: 0.277
11,MAPRE3 isoform 2 (UniProt Q9UPY8),inactive: -0.18
12,MAFG (UniProt O15525),inactive: -0.028

# Compound: C1=CC2=NC=CN=C2C=C1/C=C/3\C(=O)NC(=O)S3
# Assay: as above
# Procedure, shortened: as §1
row,Target,log2 fold change
1,MARCHF3 (UniProt Q86UD3),inactive: -0.073
2,LYST (UniProt Q99698),inactive: 0.05
3,LRRC8B (UniProt Q6P9F7),inactive: 0.122
4,LSM10 (UniProt Q969L4),inactive: 0.024
5,MAP4K3 (UniProt Q8IVH8),inactive: 1.22
6,MAP7D3 (UniProt Q8IWC1),inactive: -0.063
7,MAFF (UniProt Q9ULX9),inactive: -0.046
8,MAGI3 isoform 1 (UniProt Q5TCQ9),inactive: 0.015
9,MAP3K10 (UniProt Q02779),inactive: 0.046
10,MAGEA1 (UniProt P43355),inactive: 0.043
11,LRRC8E (UniProt Q6NSJ5),inactive: 0.129
12,LYRM1 (UniProt O43325),inactive: -0.03
13,LSM5 (UniProt Q9Y4Y9),inactive: -0.093
14,MAP4K2 (UniProt Q12851),inactive: -0.122
